The values below come from PMC6739341.

Protein sequences, listed by entry. Tags and fused reporters are not part of them.
UniProt Q13263: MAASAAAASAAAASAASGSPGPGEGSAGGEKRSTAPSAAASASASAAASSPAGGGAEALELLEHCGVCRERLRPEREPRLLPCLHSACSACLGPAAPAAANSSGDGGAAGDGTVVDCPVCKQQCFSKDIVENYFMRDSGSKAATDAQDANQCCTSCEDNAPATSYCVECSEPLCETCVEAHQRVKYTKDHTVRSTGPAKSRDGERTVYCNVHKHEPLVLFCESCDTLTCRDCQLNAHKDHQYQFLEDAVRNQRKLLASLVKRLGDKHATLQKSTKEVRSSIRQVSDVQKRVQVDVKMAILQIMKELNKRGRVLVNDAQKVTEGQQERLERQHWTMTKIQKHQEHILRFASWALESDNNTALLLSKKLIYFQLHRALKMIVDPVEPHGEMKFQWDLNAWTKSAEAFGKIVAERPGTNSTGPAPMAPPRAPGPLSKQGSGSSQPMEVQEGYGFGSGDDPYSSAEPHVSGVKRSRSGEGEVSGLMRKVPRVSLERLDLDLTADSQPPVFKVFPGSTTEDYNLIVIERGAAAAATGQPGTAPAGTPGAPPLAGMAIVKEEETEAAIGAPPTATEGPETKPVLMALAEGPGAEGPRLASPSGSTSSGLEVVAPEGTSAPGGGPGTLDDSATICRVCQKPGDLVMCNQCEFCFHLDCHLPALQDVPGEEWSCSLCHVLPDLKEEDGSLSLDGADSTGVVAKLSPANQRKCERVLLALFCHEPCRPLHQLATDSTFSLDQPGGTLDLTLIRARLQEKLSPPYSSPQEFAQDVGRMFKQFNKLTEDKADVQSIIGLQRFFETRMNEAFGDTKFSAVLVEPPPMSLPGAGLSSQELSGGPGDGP
UniProt Q13185: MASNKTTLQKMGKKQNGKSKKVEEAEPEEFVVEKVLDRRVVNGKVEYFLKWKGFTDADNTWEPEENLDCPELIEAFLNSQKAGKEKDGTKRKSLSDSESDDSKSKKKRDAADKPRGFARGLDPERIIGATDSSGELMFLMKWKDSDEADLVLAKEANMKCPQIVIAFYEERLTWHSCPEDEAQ

The target of experiment [1] is T1, FLAG-C11orf46^R236H (human) (UniProt Q8N8R7).
T1 sequence: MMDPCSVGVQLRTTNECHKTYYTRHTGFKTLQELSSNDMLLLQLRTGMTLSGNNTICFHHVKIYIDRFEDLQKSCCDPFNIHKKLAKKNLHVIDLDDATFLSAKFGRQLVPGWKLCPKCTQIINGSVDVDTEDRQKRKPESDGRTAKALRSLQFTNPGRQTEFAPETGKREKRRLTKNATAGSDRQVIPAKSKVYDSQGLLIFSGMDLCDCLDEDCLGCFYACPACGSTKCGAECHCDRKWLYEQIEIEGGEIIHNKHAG
The experiment can be described thus: co-IP; protein lysates from HEK293 cells overexpressing FLAG-tagged C11orf46, C11orf46∆ or C11orf46^R236H (doxycycline-inducible); co-precipitates read by immunoblot. For orientation: Immunoblotting shows a protein as a band on a membrane.

The target in experiment [2] is T2, FLAG-HA-tagged full length C11orf46 (human) (UniProt Q8N8R7).
T2 sequence: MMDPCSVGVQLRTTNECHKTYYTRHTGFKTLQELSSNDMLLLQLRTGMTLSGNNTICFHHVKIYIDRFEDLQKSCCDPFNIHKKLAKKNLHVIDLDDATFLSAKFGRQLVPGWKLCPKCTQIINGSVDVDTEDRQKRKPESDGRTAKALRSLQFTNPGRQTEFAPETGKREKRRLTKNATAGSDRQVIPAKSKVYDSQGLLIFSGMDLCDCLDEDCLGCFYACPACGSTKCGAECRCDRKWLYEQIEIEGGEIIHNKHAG
Described as above.

In experiment [3] the target is T3, C11orf46, endogenous in HeLa (human (endogenous in HeLa)) (UniProt Q8N8R7).
T3 sequence: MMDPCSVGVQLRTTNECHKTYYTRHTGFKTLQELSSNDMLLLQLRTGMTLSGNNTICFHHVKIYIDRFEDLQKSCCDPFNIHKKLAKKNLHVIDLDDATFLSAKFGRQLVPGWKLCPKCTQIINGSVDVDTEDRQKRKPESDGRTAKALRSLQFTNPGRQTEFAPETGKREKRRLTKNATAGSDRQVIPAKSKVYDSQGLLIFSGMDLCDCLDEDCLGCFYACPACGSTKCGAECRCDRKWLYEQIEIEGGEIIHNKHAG
The experiment can be described thus: co-IP; mouse anti-C11orf46 antibody in HeLa cells.

These are yes or no findings as the source states them, for the method shown. Binding seen in cells or lysates may run through a third protein. Some binding calls cover weakened binding; strength is not graded here. For part of these data: Tags and fused reporters may be left off the sequences shown.

Turning to “KRAB associated protein (KAP1), endogenous in HEK293 (from UniProt Q13263 1-835)”, the binding result in experiment [1] and in experiment [2] was “binds” in each case.

Regarding “heterochromatin-associated protein 1gamma (HP1γ), endogenous in HeLa (from UniProt Q13185 1-183)”, the binding entry in experiment [3] is listed as “binds”.

B1: MBD-containing-associated factor (MCAF1), endogenous in HEK293 (protein, UniProt Q6VMQ6 1-1270)
chain: MDSLEEPQKKVFKARKTMRVSDRQQLEAVYKVKEELLKTDVKLLNGNHENGDLDPTSPLENMDYIKDKEEVNGIEEICFDPEGSKAEWKETPCILSVNVKNKQDDDLNCEPLSPHNITPEPVSKLPAEPVSGDPAPGDLDAGDPASGVLASGDSTSGDPTSSEPSSSDAASGDATSGDAPSGDVSPGDATSGDATADDLSSGDPTSSDPIPGEPVPVEPISGDCAADDIASSEITSVDLASGAPASTDPASDDLASGDLSSSELASDDLATGELASDELTSESTFDRTFEPKSVPVCEPVPEIDNIEPSSNKDDDFLEKNGADEKLEQIQSKDSLDEKNKADNNIDANEETLETDDTTICSDRPPENEKKVEEDIITELALGEDAISSSMEIDQGEKNEDETSADLVETINENVIEDNKSENILENTDSMETDEIIPILEKLAPSEDELTCFSKTSLLPIDETNPDLEEKMESSFGSPSKQESSESLPKEAFLVLSDEEDISGEKDESEVISQNETCSPAEVESNEKDNKPEEEEQVIHEDDERPSEKNEFSRRKRSKSEDMDNVQSKRRRYMEEEYEAEFQVKITAKGDINQKLQKVIQWLLEEKLCALQCAVFDKTLAELKTRVEKIECNKRHKTVLTELQAKIARLTKRFEAAKEDLKKRHEHPPNPPVSPGKTVNDVNSNNNMSYRNAGTVRQMLESKRNVSESAPPSFQTPVNTVSSTNLVTPPAVVSSQPKLQTPVTSGSLTATSVLPAPNTATVVATTQVPSGNPQPTISLQPLPVILHVPVAVSSQPQLLQSHPGTLVTNQPSGNVEFISVQSPPTVSGLTKNPVSLPSLPNPTKPNNVPSVPSPSIQRNPTASAAPLGTTLAVQAVPTAHSIVQATRTSLPTVGPSGLYSPSTNRGPIQMKIPISAFSTSSAAEQNSNTTPRIENQTNKTIDASVSKKAADSTSQCGKATGSDSSGVIDLTMDDEESGASQDPKKLNHTPVSTMSSSQPVSRPLQPIQPAPPLQPSGVPTSGPSQTTIHLLPTAPTTVNVTHRPVTQVTTRLPVPRAPANHQVVYTTLPAPPAQAPLRGTVMQAPAVRQVNPQNSVTVRVPQTTTYVVNNGLTLGSTGPQLTVHHRPPQVHTEPPRPVHPAPLPEAPQPQRLPPEAASTSLPQKPHLKLARVQSQNGIVLSWSVLEVDRSCATVDSYHLYAYHEEPSATVPSQWKKIGEVKALPLPMACTLTQFVSGSKYYFAVRAKDIYGRFGPFCDPQSTDVISSTQSS
Turning to B1, the binding result in experiment [1] and in experiment [2] was “binds” each time.

B2: MCAF1, endogenous in HeLa (protein, UniProt Q6VMQ6 1-1270)
chain: MDSLEEPQKKVFKARKTMRVSDRQQLEAVYKVKEELLKTDVKLLNGNHENGDLDPTSPLENMDYIKDKEEVNGIEEICFDPEGSKAEWKETPCILSVNVKNKQDDDLNCEPLSPHNITPEPVSKLPAEPVSGDPAPGDLDAGDPASGVLASGDSTSGDPTSSEPSSSDAASGDATSGDAPSGDVSPGDATSGDATADDLSSGDPTSSDPIPGEPVPVEPISGDCAADDIASSEITSVDLASGAPASTDPASDDLASGDLSSSELASDDLATGELASDELTSESTFDRTFEPKSVPVCEPVPEIDNIEPSSNKDDDFLEKNGADEKLEQIQSKDSLDEKNKADNNIDANEETLETDDTTICSDRPPENEKKVEEDIITELALGEDAISSSMEIDQGEKNEDETSADLVETINENVIEDNKSENILENTDSMETDEIIPILEKLAPSEDELTCFSKTSLLPIDETNPDLEEKMESSFGSPSKQESSESLPKEAFLVLSDEEDISGEKDESEVISQNETCSPAEVESNEKDNKPEEEEQVIHEDDERPSEKNEFSRRKRSKSEDMDNVQSKRRRYMEEEYEAEFQVKITAKGDINQKLQKVIQWLLEEKLCALQCAVFDKTLAELKTRVEKIECNKRHKTVLTELQAKIARLTKRFEAAKEDLKKRHEHPPNPPVSPGKTVNDVNSNNNMSYRNAGTVRQMLESKRNVSESAPPSFQTPVNTVSSTNLVTPPAVVSSQPKLQTPVTSGSLTATSVLPAPNTATVVATTQVPSGNPQPTISLQPLPVILHVPVAVSSQPQLLQSHPGTLVTNQPSGNVEFISVQSPPTVSGLTKNPVSLPSLPNPTKPNNVPSVPSPSIQRNPTASAAPLGTTLAVQAVPTAHSIVQATRTSLPTVGPSGLYSPSTNRGPIQMKIPISAFSTSSAAEQNSNTTPRIENQTNKTIDASVSKKAADSTSQCGKATGSDSSGVIDLTMDDEESGASQDPKKLNHTPVSTMSSSQPVSRPLQPIQPAPPLQPSGVPTSGPSQTTIHLLPTAPTTVNVTHRPVTQVTTRLPVPRAPANHQVVYTTLPAPPAQAPLRGTVMQAPAVRQVNPQNSVTVRVPQTTTYVVNNGLTLGSTGPQLTVHHRPPQVHTEPPRPVHPAPLPEAPQPQRLPPEAASTSLPQKPHLKLARVQSQNGIVLSWSVLEVDRSCATVDSYHLYAYHEEPSATVPSQWKKIGEVKALPLPMACTLTQFVSGSKYYFAVRAKDIYGRFGPFCDPQSTDVISSTQSS
As to B2, in experiment [3], the binding result was “binds”.
